Experimental data reported in paper PMC11497104.
These are yes or no findings as the source states them, for the method shown. Binding seen in cells or lysates may run through a third protein. Some results given as binding are weak or reduced against the parent protein; the word gives no strength. For some assays here: Where a sequence is shown, tags or fusion partners need not be part of it.

Sequences of proteins named here, by UniProt entry; tags and fusion partners are left off.
UniProt Q00987: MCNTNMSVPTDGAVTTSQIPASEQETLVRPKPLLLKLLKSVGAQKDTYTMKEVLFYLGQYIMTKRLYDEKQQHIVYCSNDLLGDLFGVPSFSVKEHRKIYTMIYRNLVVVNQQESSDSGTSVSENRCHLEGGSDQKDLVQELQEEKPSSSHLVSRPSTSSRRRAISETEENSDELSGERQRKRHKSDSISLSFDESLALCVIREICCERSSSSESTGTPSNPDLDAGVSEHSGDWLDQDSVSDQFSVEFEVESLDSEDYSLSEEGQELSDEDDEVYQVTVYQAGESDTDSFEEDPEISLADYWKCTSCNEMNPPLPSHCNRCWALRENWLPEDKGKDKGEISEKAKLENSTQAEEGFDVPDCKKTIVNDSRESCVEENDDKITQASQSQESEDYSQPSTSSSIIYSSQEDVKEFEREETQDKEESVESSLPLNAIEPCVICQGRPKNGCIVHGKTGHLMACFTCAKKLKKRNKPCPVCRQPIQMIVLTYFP

Experiments:
[1] = target: T1, Flag-tagged FGF12 (fibroblast growth factor 12) (UniProt P61328); test: co-IP; HEK293 cells co-transfected with Flag-Fgf12 and His-MDM2 (WT or deletion mutants), 48 h; lysates precipitated with anti-His or anti-Flag antibody, blotted for the other tag
T1 sequence: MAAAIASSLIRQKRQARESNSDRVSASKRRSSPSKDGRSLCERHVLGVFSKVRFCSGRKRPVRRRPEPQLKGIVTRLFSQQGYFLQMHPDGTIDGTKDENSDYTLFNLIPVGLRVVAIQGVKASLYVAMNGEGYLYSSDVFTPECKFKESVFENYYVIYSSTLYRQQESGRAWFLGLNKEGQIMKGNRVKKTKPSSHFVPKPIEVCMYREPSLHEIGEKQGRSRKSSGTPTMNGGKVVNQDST

[2] = target: T2, FGF12 (endogenous, keratinocytes) (human (endogenous in HaCaT and NHEK)) (UniProt P61328); test: co-IP; endogenous proteins, HaCaT lysates; precipitated with anti-MDM2 (IgG as control) or anti-FGF12; untreated, M5 for 0, 12, 24, 48 h, or si-Scr/si-Fgf12
T2 sequence: T1 sequence

Q: Which binding [1] does the source give for “His-tagged MDM2 (His-MDM2-WT) (from UniProt Q00987 1-491)” here?
A: The binding was “binds”.

Q: With “MDM2 (endogenous, keratinocytes) (from UniProt Q00987 1-491)” as the substance, how does the binding [2] read?
A: The binding was “binds”.
